This assay has as its target T1, mouse CDC45, yeast two-hybrid fusion (mouse) (UniProt Q9Z1X9).
T1 sequence: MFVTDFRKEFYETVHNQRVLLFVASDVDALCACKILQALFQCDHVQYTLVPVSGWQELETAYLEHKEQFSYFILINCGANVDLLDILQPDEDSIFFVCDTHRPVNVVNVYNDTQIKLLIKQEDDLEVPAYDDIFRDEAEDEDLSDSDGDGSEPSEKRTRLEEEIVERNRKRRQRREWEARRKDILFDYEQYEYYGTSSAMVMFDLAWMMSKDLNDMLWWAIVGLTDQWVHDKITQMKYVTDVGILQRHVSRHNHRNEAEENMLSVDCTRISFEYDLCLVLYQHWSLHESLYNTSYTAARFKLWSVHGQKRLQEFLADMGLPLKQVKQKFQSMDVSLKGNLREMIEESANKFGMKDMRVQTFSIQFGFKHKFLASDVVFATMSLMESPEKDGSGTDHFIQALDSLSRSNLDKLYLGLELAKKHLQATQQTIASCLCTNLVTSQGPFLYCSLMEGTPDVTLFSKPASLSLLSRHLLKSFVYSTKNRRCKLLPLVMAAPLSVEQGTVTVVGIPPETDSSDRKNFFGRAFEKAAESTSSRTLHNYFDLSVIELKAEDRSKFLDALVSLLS
The assay is described as follows: two-hybrid.

Sequences of proteins named here, by UniProt entry; tags and fusion partners are left off. A change or cut given only in a name is not applied to a line headed by its entry.
UniProt Q8C0R0: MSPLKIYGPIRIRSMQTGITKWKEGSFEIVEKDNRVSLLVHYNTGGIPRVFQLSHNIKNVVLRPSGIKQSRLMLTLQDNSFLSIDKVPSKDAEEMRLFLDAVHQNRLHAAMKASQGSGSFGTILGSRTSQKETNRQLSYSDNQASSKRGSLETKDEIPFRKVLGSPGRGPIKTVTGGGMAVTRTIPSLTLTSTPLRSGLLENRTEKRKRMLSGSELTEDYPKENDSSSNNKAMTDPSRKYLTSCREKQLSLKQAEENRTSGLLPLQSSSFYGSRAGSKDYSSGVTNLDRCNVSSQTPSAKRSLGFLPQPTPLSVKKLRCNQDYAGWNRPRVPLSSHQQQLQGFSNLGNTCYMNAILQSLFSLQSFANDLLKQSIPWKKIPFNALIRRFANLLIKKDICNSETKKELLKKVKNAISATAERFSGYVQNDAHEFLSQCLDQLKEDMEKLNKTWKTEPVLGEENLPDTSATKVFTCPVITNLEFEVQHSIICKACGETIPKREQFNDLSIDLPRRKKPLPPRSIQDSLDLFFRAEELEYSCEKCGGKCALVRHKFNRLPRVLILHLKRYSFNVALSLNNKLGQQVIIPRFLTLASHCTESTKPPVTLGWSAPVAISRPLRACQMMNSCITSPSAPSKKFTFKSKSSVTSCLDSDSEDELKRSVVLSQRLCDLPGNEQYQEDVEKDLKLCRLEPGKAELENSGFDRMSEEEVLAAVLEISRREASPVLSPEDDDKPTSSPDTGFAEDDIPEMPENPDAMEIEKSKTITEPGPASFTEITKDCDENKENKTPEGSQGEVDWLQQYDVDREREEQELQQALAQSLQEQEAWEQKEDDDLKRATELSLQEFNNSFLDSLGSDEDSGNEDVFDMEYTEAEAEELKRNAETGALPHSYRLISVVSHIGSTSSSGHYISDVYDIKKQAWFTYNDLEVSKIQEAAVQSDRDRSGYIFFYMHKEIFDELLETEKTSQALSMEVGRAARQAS

These are yes or no findings as the source states them, for the method shown. Tags and fused reporters may be left off the sequences shown.

Turning to “USP37 1-119 with the 10A mutations, yeast two-hybrid fusion (from UniProt Q8C0R0) (domain or fragment)”, the binding entry was “no binding”.

Source of the values: paper doi:10.1101/2024.09.03.610971.
